PubChem BioAssay AID686937, Drosophila RNAi Screening Center, 2013
Purpose: 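Knock-downs that reduce output of a secreted reporter enzyme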 (primary screen). System: Drosophila S2 cells expressing secreted horseradish peroxidase. Reagents: long dsRNA against Drosophila genes. Timing: about 5.5 days (5 days dsRNA, then 12 h reporter induction). Challenge: reporter expression induced after 5 days of dsRNA, read 12 h later; inducer not stated. Measured: 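Chemiluminescent measurement of peroxidase in the medium 12 h after reporter induction, following 5 days of dsRNA, given as a z-score per plate; higher means more secretion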. Scale: z-score: higher = more reporter secreted into medium.
The screen tested about 23,000 reagents; below is a random part of those that have a named target and a result. 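Reduced-secretion tags in replicate 1 do not always agree with the z-scores; no criterion for assigning the tags was given.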 Further read-outs or replicates are left out here. Reagent sequences are not shown. The record does not give: the amount of reagent.

Target gene,DRSC id,"z-score, replicate 1"
qvr (quiver),DRSC05280,0.43
Or65b (Odorant receptor 65b),DRSC08809,0.32
CG13250,DRSC11698,0.39
CG4615,DRSC17491,0.44
CG4615,DRSC18376,-0.43
ttv (tout-velu),DRSC07709,0.39
CR34254 (pseudo),DRSC09562,-0.65
Cyp4d8 (Cytochrome P450 4d8),DRSC11131,0.39
Neurochondrin,DRSC12580,0.22
CG34334,DRSC20643,0.06
CG10663,DRSC09770,0.33
Setd3 (SET domain containing 3),DRSC17840,0.15
Setd3 (SET domain containing 3),DRSC18269,0.33
CG1463,DRSC19603,0.52
fuss (fussel),DRSC17200,0.35
fuss (fussel),DRSC21452,0.01
tll (tailless),DRSC17085,-0.25
Dnaaf6 (Dynein axonemal assembly factor 6),DRSC10473,0.25
CG7202,DRSC11818,0.39
alph (alphabet),DRSC15398,0.83
sxe2 (sex-specific enzyme 2),DRSC15692,0.3
Atg6 (Autophagy-related 6),DRSC15798,0.2
Nt5b (5' nucleotidase B),DRSC19976,0.3
Nt5b (5' nucleotidase B),DRSC19977,0.3
Nt5b (5' nucleotidase B),DRSC19978,0.22
Nt5b (5' nucleotidase B),DRSC22588,-0.17
CG42296,DRSC00394,0.37
Reepl1 (Receptor accessory protein like 1),DRSC19418,0.41
CG9084,DRSC07335,-0.05
GrlHz (Gustatory receptor-like Holozoa),DRSC04424,0.15
NfI (Nuclear factor I),DRSC17158,0.52
CG31207,DRSC21886,0.44
Ufc1 (Ubiquitin-fold modifier conjugating enzyme 1),DRSC07156,0.17
CG1074,DRSC12143,0.29
CG12502,DRSC08281,0.38
Wnt2 (Wnt oncogene analog 2),DRSC05160,0.08
Wnt2 (Wnt oncogene analog 2),DRSC07574,0.22
CG9259,DRSC03174,0.31
fray (frayed),DRSC16950,-0.35
Tm2 (Tropomyosin 2),DRSC16887,0.3
dgo (diego),DRSC06134,0.09
CG14106,DRSC10109,0.26
CkIalpha (Casein kinase Ialpha),DRSC20231,0.26
CkIalpha (Casein kinase Ialpha),DRSC22609,2.48
CG34278,DRSC13208,0.32
CG11334,DRSC14066,0.44
CG11334,DRSC14302,0.55
CG17196,DRSC15189,0.36
CG14354,DRSC14817,0.33
CG9304,DRSC04538,0.24
Tcs3 (Threonyl-carbamoyl synthesis 3),DRSC10461,0.21
Akap200 (A kinase anchor protein 200),DRSC01864,-0.01
edin (elevated during infection),DRSC09488,-0.21
CG14696,DRSC14919,0.1
CG13532,DRSC04174,0.18
Gprk1 (G protein-coupled receptor kinase 1),DRSC20732,0.52
Gprk1 (G protein-coupled receptor kinase 1),DRSC20916,-0.41
S6kII (Ribosomal protein S6 kinase II),DRSC20645,0.45
CG17746,DRSC08521,0.52
CG14367,DRSC14829,0.21
mRpS2 (mitochondrial ribosomal protein S2),DRSC00550,-0.23
CG9471,DRSC16499,0.15
ND-MLRQ (NADH dehydrogenase (ubiquinone) MLRQ subunit),DRSC11913,-0.42
pot (papillote),DRSC19850,0.15
Cdc2rk (Cdc2-related kinase),DRSC07590,0.17
CG34039,DRSC09318,0.58
Nup107 (Nucleoporin 107kD),DRSC01999,-1.68
CG7523,DRSC16254,0.42
CG17698,DRSC11907,0.1
t-Grip84 (testis-specific gamma-tubulin ring protein 84),DRSC10904,0.2
a6,DRSC18733,0.47
CG15888,DRSC15125,0.47
Phax (Phosphorylated adaptor for RNA export),DRSC07066,0.26
CR32733 (pseudo),DRSC17481,-1.12
IKKepsilon (I-kappaB kinase epsilon),DRSC03550,0.17
Hsp60C (Heat shock protein 60C),DRSC03036,0.49
CG4306,DRSC10409,0.02
Mur11Da (Mucin related 11Da),DRSC18960,0.57
Vti1a (Vesicle transport through interaction with t-SNAREs 1a),DRSC08563,0.05
Vta1 (Vesicle trafficking 1),DRSC08604,0.26
Vta1 (Vesicle trafficking 1),DRSC22848,-0.04
"Arpc5 (Actin-related protein 2/3 complex, subunit 5)",DRSC00730,-1.03

5 entries from above in another layout.
Nt5b (5' nucleotidase B) [DRSC19977] → z-score, replicate 1: 0.3
Nt5b (5' nucleotidase B) [DRSC19978] → z-score, replicate 1: 0.22
Nt5b (5' nucleotidase B) [DRSC22588] → z-score, replicate 1: -0.17
CG42296 [DRSC00394] → z-score, replicate 1: 0.37
Reepl1 (Receptor accessory protein like 1) [DRSC19418] → z-score, replicate 1: 0.41
